At least one compound was matched to its structure with a doubt left.
Key:
[1] = tested on: M481 metastatic melanoma cells; assay: M481 melanoma xenograft tumor growth in NSG mice (i.p. agents, PLX 4720 chow); type: in vivo; conditions: Bafetinib 4 mg/kg/day alone vs DMSO control; p-value<0.0001, two-tailed paired t-test
K562 = conditions: cited from earlier work
KU812 [2] = conditions: cited from earlier work
U937 cell line = conditions: Bcr-Abl-negative U937; cited from earlier work
KU812 [3] = conditions: 20 mg/kg/day; cited from earlier work

Cc1ccc(NC(=O)c2ccc(CN3CC[C@H](N(C)C)C3)c(C(F)(F)F)c2)cc1Nc1nccc(-c2cncnc2)n1 [bafetinib]
growth of subcutaneous tumors [1]: significant reduction | growth suppression (K562): potently | growth suppression (KU812 [2]): potently | effect on proliferation (U937 cell line): without effects | tumor growth (KU812 [3]): completely inhibits tumor growth without adverse effects
